Measured values published in PubChem BioAssay AID445 (National Center for Advancing Translational Sciences (NCATS), 2006).
The list shows a part of the results. These are further read-outs of the screen, such as a control signal, another cell line or another target. No call is given for them. The list favours compounds with an active or inconclusive main result. Potencies come from curve fits of mixed quality, noted in brackets.

Assay: IkB Signaling
Conditions: ABC-DLBCL IkBa-CBG/CBR dual luciferase ratio (green luciferase fused to IkBa over red control in OCI-Ly3 lymphoma cells), 4 h
Procedure, shortened: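 Curves were fitted separately to fusion (green), unfused (red) and ratio luminescence, then classed by r2, magnitude and activity. Cells: OCI-Ly3, 4 h compound plus doxycycline at 37C; 10 uM MG-132 defined full response.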

[1] = measured here: control luc red channel unless noted
[2] = measured here: IkB-luc green channel
[3] = measured here: control luc red channel

CCc1ccc(NC(=O)CC2C(=O)N(c3ccc(F)cc3)C(=O)N2Cc2ccc(F)cc2)cc1 (stereo not given)
AC50 [1]: 20 µM [falling, partial curve]

Cc1ccc(-n2nc(C)c3c(C(F)(F)F)cc(-c4cccnc4)nc32)cc1C
AC50 [1]: 39.8 µM [falling, single point]

O=C(Nc1cccnc1)c1cc2c(ccc3ccccc32)o1
AC50 [1]: 3.16 µM [falling, full curve]

Cc1ccc2nc(C(O)C(O)c3nc4ccc(C)cc4[nH]3)[nH]c2c1 (stereo not given)
AC50 [1]: 10 µM [falling, partial curve]

O=C(c1cnn(-c2ccc(F)cc2)c1-n1cccc1)N1CCN(c2ccccc2)CC1
AC50 [1]: 20 µM [falling, partial curve]

CCOc1ccc(-c2cn3nc(CC(C)C)sc3n2)cc1
AC50 [1]: 5.01 µM [rising, partial curve]

COc1ccc(CC(=O)NCC(c2cccs2)S(=O)(=O)c2ccc(F)cc2)cc1 (stereo not given)
AC50 [1]: 39.8 µM [falling, single point]

Cc1ccc(CNC(=O)c2c(Nc3ccccc3C)sc(C(=O)c3ccc(F)cc3)c2N)cc1
AC50 [1]: 31.6 µM [falling, single point]

COc1cccc(-c2nn(C)c3sc(C(=O)NCc4ccc(OC)cc4OC)cc23)c1
AC50 [1]: 3.98 µM [falling, full curve]

CC(C)c1cc(-c2nc(-c3ccc(Cl)cc3)no2)n[nH]1
AC50 [1]: 25.1 µM [falling, single point]

O=C(CCn1c(=O)c2ccccc2n(CC(=O)Nc2ccc(F)cc2)c1=O)NCCc1ccccc1
AC50 [1]: 12.6 µM [falling, partial curve]

CCc1ccc(C2CC(=O)Nc3c2c(=O)nc2c(C)cccn32)cc1 (stereo not given)
AC50 [1]: 0.0631 µM [falling, full curve, poor fit]

COc1ccccc1C(=O)Nc1ccc(C(=O)OCc2cc(=O)n3c4c(sc3n2)CCCC4)cc1
AC50 [1]: 3.16 µM [falling, full curve]

Cc1ccc(CNC(=O)c2c(Nc3c(C)cccc3C)sc(C(=O)c3ccccc3)c2N)cc1
AC50 [1]: 39.8 µM [falling, single point]

COc1ccccc1NC(=O)c1cnn(-c2ccccc2)c1-n1cccc1
AC50 [1]: 6.31 µM [falling, partial curve]

c1ccc(-c2cn3nc(-c4ccccc4)sc3n2)cc1
AC50 [2]: 1.26 µM [rising, partial curve] | AC50 [3]: 0.158 µM [falling, full curve]

CCOC(=O)c1ccccc1NC(=O)c1c(C)oc2ncnc(N3CCOCC3)c12
AC50 [1]: 31.6 µM [falling, single point]

Cc1ccccc1-c1ccc2ncnc(-n3ccnc3)c2c1
AC50 [1]: 3.98 µM [rising, single point] [measured here: IkB-luc green channel]

Cc1cccc(-n2c(SCC(=O)Nc3ccc(C)c(C)c3)nc3n[nH]c(C)c3c2=N)c1
AC50 [1]: 20 µM [falling, single point]

CCCCC(CC)CNC(=O)CCCCCn1c(=O)[nH]c2ccsc2c1=O (stereo not given)
AC50 [1]: 10 µM [falling, partial curve]

CCc1ccc(-n2c(=O)c3ccccc3n(Cc3ccccc3C#N)c2=O)cc1
AC50 [1]: 0.1 µM [rising, partial curve, poor fit]

CC(C)c1ccc(NC(=O)c2ccc(=O)n(Cc3ccccc3)c2)cc1
AC50 [1]: 20 µM [falling, single point]

CCOc1ccc(-c2noc(CCC(=O)O)n2)cc1
AC50 [1]: 0.398 µM [falling, full curve]

O=C(CN1C2CCCC1CC(NC(=O)c1ccco1)C2)Nc1ccccc1C(F)(F)F (stereo not given)
AC50 [1]: 39.8 µM [falling, single point]

C=CCn1c2ccccc2c2nnc(SCN3C(=O)c4ccccc4C3=O)nc21
AC50 [1]: 10 µM [falling, partial curve]

CCN(CC)c1ccc2c(c1)CCCN2
AC50 [1]: 39.8 µM [rising, single point] [measured here: IkB-luc green channel]

O=C(O)CCn1ccc2cc(S(=O)(=O)N3CCCCCC3)ccc21
AC50 [1]: 39.8 µM [falling, single point]

CC(=O)c1cccc(NC(=O)c2cc3ccccn3n2)c1
AC50 [1]: 15.8 µM [falling, partial curve]

O=C(c1noc2c1CCc1ccccc1-2)N1CCCc2ccccc21
AC50 [1]: 15.8 µM [falling, partial curve]

Cc1c(C(=O)OCCOC(C)C)[nH]c2c1C(=O)CC(c1ccco1)C2 (stereo not given)
AC50 [2]: 0.398 µM [rising, full curve] | AC50 [3]: 0.251 µM [rising, full curve]

COc1cc(Nc2nc(-c3ccc(OC)c(OC)c3)nc3ccccc23)cc(OC)c1
AC50 [1]: 12.6 µM [falling, partial curve]

Cc1ccc(NC(=O)OCC(F)(F)C(F)F)cc1NC(=O)OCC(F)(F)C(F)F
AC50 [1]: 20 µM [falling, partial curve]

COc1ccccc1Nc1c2c(nc3ccc(NC(=O)c4ccc(N(C)C)cc4)cc13)CCCC2
AC50 [1]: 15.8 µM [falling, partial curve]

CC(C)[C@H](NC(=O)OC(C)(C)C)c1nnc(SCC(=O)Nc2ccc(Br)cc2)o1
AC50 [1]: 12.6 µM [falling, partial curve]

Cc1ccc(-n2c(=O)c3oc4ccccc4c3n(Cc3cccc(F)c3)c2=O)cc1C
AC50 [1]: 12.6 µM [falling, single point]

Cc1ccc(C(=O)c2c(N)c(C(=O)Nc3cccc(C(F)(F)F)c3)c3ccccn23)cc1
AC50 [1]: 0.00398 µM [rising, full curve, poor fit]

Cc1nc2nc(NCc3ccc(Br)cc3)[nH]n2c(=O)c1Cc1ccccc1
AC50 [1]: 20 µM [falling, partial curve]

COc1cccc(Cn2c(=O)n(CC3CCC(C(=O)N4CCOCC4)CC3)c(=O)c3sccc32)c1 (stereo not given)
AC50 [1]: 1.58 µM [rising, partial curve]

Cc1oc2ncn(CC(C)C)c(=O)c2c1C(=O)NCCCN1CCCCC1C (stereo not given)
AC50 [1]: 3.98 µM [rising, partial curve, poor fit]

CCOc1ccc(NC(=O)c2oc3ccccc3c2NC(=O)Cc2cccs2)cc1
AC50 [1]: 3.16 µM [falling, partial curve]

CCc1ccc2c(c1)c(=O)c(C(=O)c1ccccc1)cn2CC(=O)Nc1ccc(C)c(Cl)c1
AC50 [1]: 31.6 µM [falling, partial curve]

CCc1ccc2c(c1)c(=O)c(C(=O)c1ccc(C)cc1)cn2CC(=O)Nc1ccccc1C
AC50 [1]: 20 µM [falling, partial curve]

COc1ccc(-c2nnc(SCC(=O)NCCc3ccccc3)nc2-c2ccc(OC)cc2)cc1
AC50 [1]: 25.1 µM [falling, single point]

CC(NS(=O)(=O)c1ccccc1)C(=O)Nc1nccs1 (stereo not given)
AC50 [1]: 10 µM [falling, partial curve]

COc1ccc(-c2c(C)nn3c(-c4ccccc4)cc(-c4ccccc4)nc23)cc1
AC50 [1]: 12.6 µM [rising, partial curve]

O=C(Cc1ccc(NC(=O)N2CCCCc3ccccc32)cc1)Nc1ccccc1Br
AC50 [1]: 31.6 µM [falling, single point]

CCSc1nnc(NC(=O)C2CCCCC2)s1
AC50 [1]: 6.31 µM [falling, partial curve]

CCCCN(CC)S(=O)(=O)c1ccc(C(=O)Nc2nnc(-c3cccs3)o2)cc1
AC50 [1]: 6.31 µM [falling, partial curve]

CCCCNc1cc(N2CCN(C3CCCCC3)CC2)c2noc3c2c1C(=O)c1ccccc1-3
AC50 [1]: 10 µM [falling, partial curve]

Cc1cc(=O)c2cc(Cl)ccc2[nH]1
AC50 [1]: 39.8 µM [falling, single point]

CCCCC(=O)N1CCN(c2nc3c(C)c(C)ccc3s2)CC1
AC50 [1]: 3.16 µM [rising, single point]

COc1cccc(C(=O)Nc2ccc(C(=O)OCc3cc(=O)n4cc(C)sc4n3)cc2)c1
AC50 [1]: 39.8 µM [rising, single point]

Cc1nc2c(C(=O)NCCc3ccccc3)c[nH]n2c(=O)c1Cc1ccccc1F
AC50 [1]: 15.8 µM [falling, partial curve]

CCOc1ccc2nc(NC(=O)Nc3cccs3)sc2c1
AC50 [2]: 39.8 µM [falling, single point] | AC50 [3]: 20 µM [falling, single point]

Cc1nc2ccc(S(=O)(=O)NCC(=O)Nc3ccc(C)c(Cl)c3)cc2s1
AC50 [1]: 15.8 µM [falling, single point]

Cc1cc(C)cc(NC(=O)CSc2nc3c(cnn3-c3ccc(F)cc3)c(=O)[nH]2)c1
AC50 [1]: 0.01 µM [falling, full curve, poor fit]

CCCCOC(=O)c1ccc(NC(=O)c2cc(=O)c3ccccc3o2)cc1
AC50 [1]: 10 µM [falling, partial curve]

O=C(O)CCCn1cc(NC(=O)COc2ccccc2F)cn1
AC50 [1]: 0.398 µM [falling, full curve]

O=C(Nc1ccc(OC(F)(F)F)cc1)C(NS(=O)(=O)c1cccc2nsnc12)c1ccccc1 (stereo not given)
AC50 [1]: 15.8 µM [falling, partial curve]

O=C(CSc1ncc2c(n1)-c1cc(Cl)ccc1N(Cc1ccccc1)S2(=O)=O)NCc1ccccc1
AC50 [1]: 7.94 µM [falling, full curve, poor fit]

CCOc1ccc(NC(=O)c2ncn(-c3ccccc3)n2)cc1
AC50 [1]: 7.94 µM [falling, partial curve]

Cc1cc(C)c2nc(C(F)(F)F)nc(N3CCN(C(=O)c4ccco4)CC3)c2c1
AC50 [1]: 3.16 µM [falling, full curve]
